According to PubChem BioAssay AID1487 (National Center for Advancing Translational Sciences (NCATS), 2009):
The list shows a part of the results. Shown are side measurements of this screen, not its main read-out; they come without a call. Most of these compounds were active or inconclusive in the main read-out, so they are no random draw. The note in brackets gives the kind of curve behind each potency; many fits are weak.

Assay: qHTS Assay for Modulators of Lamin A Splicing
Conditions: HeLa LMNA splicing GFP/RFP minigene ratio, 48 h
Outline: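 Read-out is the ratio of GFP to DsRed2 object intensity, acquired by 488 nm laser-scanning cytometry on HeLa lamin A-EGFP minigene reporter cells. Compound incubation 48 hrs at 37 °C in Opti-MEM with 2% FBS; DMSO 0.5% final.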

[1] = measured here: RFP viability control channel
[2] = measured here: GFP splicing reporter channel

C=CCCCCCCCCC(=O)OC
AC50 [1]: 1.26 µM [falling, single point]

COCCn1c(=O)[nH]c2cc(C(=O)NCCN3CCN(c4ccccc4)CC3)ccc2c1=O
AC50 [2]: 12.6 µM [rising, single point]
AC50 [1]: 15.8 µM [rising, single point]

CC(C)n1nnnc1-c1cccc(Cl)c1
AC50 [2]: 12.6 µM [rising, single point]

Fc1ccc(CNc2ccc(CNc3ncn[nH]3)cc2)cc1
AC50 [2]: 14.1 µM [rising, partial curve]
AC50 [1]: 28.2 µM [rising, single point]

O=C(CSc1nc2ccc([N+](=O)[O-])cc2[nH]1)NC1CCCCCC1
AC50 [1]: 35.5 µM [rising, single point]

CN(C)c1ccnc2sc(C(=O)c3ccccc3)c(N)c12
AC50 [2]: 8.91 µM [rising, partial curve, poor fit]
AC50 [1]: 11.2 µM [rising, partial curve, poor fit]

COc1cc(C)c2c(=O)cc(-c3ccccc3)oc2c1
AC50 [2]: 22.4 µM [rising, single point]

Cc1ccc(C(=O)Nc2nc3ccccc3s2)s1
AC50 [1]: 11.2 µM [rising, single point]

Clc1ccc(C(c2nnnn2C2CCCC2)N2CCSCC2)cc1 (stereo not given)
AC50 [2]: 35.5 µM [rising, single point]

CCCCN1CCCc2cc(CN(CCCN3CCOCC3)C(=O)Nc3ccc(OCC)cc3)ccc21
AC50 [2]: 0.0224 µM [rising, full curve, poor fit]
AC50 [1]: 6.31 µM [rising, full curve, poor fit]

Cn1c(N=Nc2ccccc2)nc2ccccc21
AC50 [2]: 25.1 µM [rising, single point]
AC50 [1]: 12.6 µM [rising, partial curve, poor fit]

CCc1ccc(C(=O)c2cnc3ccc(OC)cc3c2N2CCN(CC)CC2)cc1
AC50 [2]: 14.1 µM [falling, partial curve]
AC50 [1]: 0.708 µM [falling, partial curve, poor fit]

O=C1C=CCC(/C=C/c2ccccc2)O1 (stereo not given)
AC50 [1]: 3.55 µM [rising, single point]

OC(COCC(F)(F)C(F)(F)C(F)(F)C(F)F)Cn1c2ccccc2c2ccccc21 (stereo not given)
AC50 [2]: 35.5 µM [falling, single point]
AC50 [1]: 5.62 µM [rising, single point]

O=C(Nc1cccc2ccccc12)OCc1cncs1
AC50 [1]: 0.00355 µM [falling, full curve, poor fit]

Cc1cccc(C(=O)N2CCC(=O)N(C(COCc3ccc(Cl)cc3)Cc3ccccc3)CC2)c1 (stereo not given)
AC50 [2]: 12.6 µM [rising, partial curve]
AC50 [1]: 15.8 µM [rising, partial curve]

CCOC(=O)c1ccc(Nc2ncnc3c2cnn3-c2cccc(Cl)c2)cc1
AC50 [2]: 22.4 µM [falling, single point]
AC50 [1]: 35.5 µM [falling, single point]

N=c1c2c(ncn1Cc1ccco1)Oc1ccc3ccccc3c1C2c1ccccc1 (stereo not given)
AC50 [2]: 25.1 µM [falling, partial curve]
AC50 [1]: 10 µM [falling, single point]

Cc1ccc(Nc2nc(N)nc(CN3CCN(Cc4ccc5c(c4)OCO5)CC3)n2)c(C)c1
AC50 [2]: 8.91 µM [rising, partial curve]
AC50 [1]: 11.2 µM [rising, partial curve]

CC1Cc2cc(S(=O)(=O)NCc3ccccc3Cl)ccc2N1C(=O)C1CCC1 (stereo not given)
AC50 [2]: 0.0316 µM [falling, full curve]
AC50 [1]: 10 µM [falling, partial curve]

COc1cc(/C=C2\SC(=N)N(c3ccc(F)cc3)C2=O)ccc1O
AC50 [2]: 14.1 µM [rising, partial curve]

COc1ccc2[nH]c(=O)c(CNc3cccc(C)c3)cc2c1
AC50 [2]: 0.112 µM [falling, full curve, poor fit]

CCOC(=O)Cn1nnnc1CN(Cc1ccccc1)Cc1cc2cc(CC)ccc2[nH]c1=O
AC50 [1]: 35.5 µM [rising, single point]

O=C(COC(=O)c1ccc(Cl)cc1O)NC(=O)C1CCCCC1
AC50 [2]: 0.112 µM [falling, full curve, poor fit]

C=CCOc1ccc2nc(NC(=O)OC)[nH]c2c1
AC50 [2]: 4.47 µM [rising, single point]
AC50 [1]: 2.51 µM [rising, full curve]

Cc1cccc(N2CCN(C(=O)C3CCCN(S(=O)(=O)c4cnc[nH]4)C3)CC2C)c1 (stereo not given)
AC50 [1]: 0.0355 µM [rising, full curve, poor fit]

CCCCC(c1nnnn1CC1CCCO1)N1CCN(c2nc3ccccc3s2)CC1 (stereo not given)
AC50 [2]: 11.2 µM [rising, partial curve]
AC50 [1]: 17.8 µM [rising, partial curve]

Cc1ccc(-c2noc(CSc3nnc(CCc4ccccc4)n3-c3ccccc3)n2)cc1
AC50 [1]: 17.8 µM [rising, single point]

COc1ccccc1N1CCN(CC(=O)NCCc2ccc(S(N)(=O)=O)cc2)CC1
AC50 [2]: 0.00447 µM [falling, full curve, poor fit]
AC50 [1]: 0.562 µM [falling, partial curve, poor fit]

CCn1c(=O)c(C(=O)NNS(=O)(=O)c2ccc(C)cc2)c(O)c2ccccc21
AC50 [2]: 31.6 µM [rising, single point]
AC50 [1]: 35.5 µM [rising, single point]

COc1ccc(-n2ncc3c(NCCC4=CCCCC4)ncnc32)cc1
AC50 [2]: 1.58 µM [falling, partial curve, poor fit]

CCNC(=S)N(CCc1c(C)[nH]c2ccc(C)cc12)Cc1cccs1
AC50 [2]: 0.891 µM [rising, partial curve]
AC50 [1]: 1.26 µM [rising, single point]

COc1nc(OCC#N)nc(N2CCCCC2)n1
AC50 [1]: 0.794 µM [falling, partial curve]

C/C(=N\NC(=O)C1CCCN(S(=O)(=O)c2ccccc2)C1)c1ccccn1 (stereo not given)
AC50 [1]: 10 µM [rising, partial curve]

Cc1cc2c(N3CCCCC3C)ncnc2s1 (stereo not given)
AC50 [1]: 11.2 µM [rising, partial curve, poor fit]

O=C(Nc1cccc(OC(F)(F)F)c1)c1ccc(Br)o1
AC50 [2]: 35.5 µM [rising, single point]

Cc1ccc(/C=[N+](/C)[O-])cc1
AC50 [2]: 0.0794 µM [rising, full curve, poor fit]

COc1ccc(Cl)cc1NC(=O)CN(C)CC(=O)Nc1ccccc1N1CCOCC1
AC50 [1]: 0.0126 µM [rising, full curve, poor fit]

Cc1cccc(NC(=O)/C=C/c2ccc(Cl)cc2)n1
AC50 [1]: 14.1 µM [rising, partial curve]

CC(C)Nc1c([N+](=O)[O-])c(=O)oc2ccccc12
AC50 [2]: 14.1 µM [falling, partial curve, poor fit]
AC50 [1]: 12.6 µM [falling, partial curve]

O=C(CCS(=O)(=O)Cc1ccccc1)Nc1nc2c(s1)CCCC2
AC50 [2]: 3.16 µM [falling, single point]
AC50 [1]: 2.82 µM [falling, single point]

CC1=CC(C)(C)Nc2ccc(OC(=O)c3ccco3)cc21
AC50 [2]: 35.5 µM [falling, single point]
AC50 [1]: 35.5 µM [falling, single point]

Cc1cc(C)c(S(=O)(=O)/N=C2/C=C(Sc3ncn[nH]3)C(=O)c3ccccc32)cc1C
AC50 [2]: 3.98 µM [falling, full curve]
AC50 [1]: 4.47 µM [falling, full curve, poor fit]

COC(=O)CNC(c1ccccc1)c1cc(Cl)ccc1NC(=O)c1cccc(Cl)c1 (stereo not given)
AC50 [2]: 14.1 µM [rising, single point]
AC50 [1]: 22.4 µM [rising, single point]

COc1c2c(nc3ccccc13)O[C@H]([C@@](C)(O)CO)C2
AC50 [2]: 0.0708 µM [falling, full curve, poor fit]
AC50 [1]: 0.0562 µM [falling, full curve, poor fit]

CC1CN(S(=O)(=O)c2cccc(-c3cn4ccccc4n3)c2)CC(C)O1 (stereo not given)
AC50 [1]: 17.8 µM [rising, single point]

CCCCC(=O)Nc1ccc(C(=O)NNC(=S)NC(=O)c2cccs2)cc1
AC50 [1]: 22.4 µM [rising, partial curve, poor fit]

CCOC(=O)Cn1c(CN2CCc3ccccc3C2)nc2c1c(=O)n(C)c(=O)n2C
AC50 [2]: 5.62 µM [falling, single point]
AC50 [1]: 3.98 µM [falling, single point]

COc1ccc(OC)c(CNC(=O)CCn2c(=O)c3cccn3c3ccc(F)cc32)c1
AC50 [2]: 12.6 µM [falling, partial curve]
AC50 [1]: 12.6 µM [falling, partial curve, poor fit]

COc1ccc(CCNC(=S)Nc2ccc(C)cc2C)cc1
AC50 [1]: 35.5 µM [rising, single point]

Cn1nc(CC(=O)NC2CCCCC2)c2ccccc2c1=O
AC50 [2]: 12.6 µM [rising, partial curve]
AC50 [1]: 14.1 µM [rising, partial curve]

COc1cc(/C=N/NC(=S)NCc2ccco2)cc(OC)c1OC
AC50 [1]: 0.00501 µM [rising, full curve, poor fit]

Cc1cc2cc(C=C(C#N)C#N)c(Cl)nc2cc1C
AC50 [1]: 11.2 µM [rising, partial curve, poor fit]

CCOc1ccc(CC(=O)N2CCN=C2SCc2ccc([N+](=O)[O-])cc2)cc1
AC50 [1]: 11.2 µM [rising, partial curve]
